Reference: the supplement of paper PMC10338343
± gives the standard deviation. The entries are a selection whose mix differs from that of the whole data set. Many of these values have a large error.

tested on: MIWI (PIWIL1) piRISC loaded with Kctd7 piRNA (30 nt); experiment: pre-steady-state target cleavage rate (min^-1); MIWI and MILI are mouse PIWI proteins and EfPiwi is from a freshwater sponge; tags in brackets are library labels; higher = faster piRNA-guided slicing of the target; conditions: guide: Kctd7 piRNA 5'p-UGUUAAUCUCUCAGAGAAGGUGACAGUGAU; auxiliary factor: 500 nM mouse GTSF1
Method: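 Cleave-'n-Seq: a library of target RNAs (target site embedded in constant flanks, ACAGCATTCCGCGTTAGTGATATCCG... 5' flank; DNA-blocked outside the site) at 0.1 nM was incubated with 1 nM active mouse MILI or MIWI piRISC (synthetic 5'-monophosphorylated piRNA guide) with or without 500 nM mouse GTSF1 at 33 °C for 1 min to 16 h. Uncleaved targets were sequenced and normalised to non-target controls, and the pooled three trials were fitted to a burst-and-steady-state model to give the pre-steady-state cleavage rate (min^-1; k3 is constrained to at most 1e-4). Sequence is the target site only; target names encode pairing extent (gX:gY) and contiguous / 1-mismatch / 2-mismatch / bulge geometry. Fits with R² ≤ 0 are excluded.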

Row | Sequence | pre-steady-state target cleavage rate
1 | UAGUGAGUCACCUUCACUGAGAGAUUUACA | 0.203 ± 0.036
2 | UAGUGACAGUCCUUGUCUGAGAGAUUAAGA | 0.000629 ± 0.011
3 | UAGUGACUCACCUUCUCUGACACAUUAACA | 0.00928 ± 0.0035
4 | UAGUGACAGUCCUACUCUGAGAGAUUAUCA | 0.00187 ± 0.0038
5 | UAGUGACAGUGCUUCUCUCUGAGAUUAAGA | 0.000178 ± 0.027
6 | UACACUGUCACCUUCUCUGAGUGAUUUUGA | 0.00209 ± 0.0073
7 | UAGUCUGUCACCUUGACUGAGAGAUUUUGA | 0.000757 ± 0.0093
8 | UAGACUGUCACGUUCUCUGACAGAUUAACA | 0.00161 ± 0.0037
9 | UAGUGACAGUCCUUCUCUGAGAGAAAUACA | 0.000997 ± 0.005
10 | UAGUGAGUCAGGAUCUCUGAGAGAUAUUGA | 0.000433 ± 0.011
11 | AUCCCUGUCACCUUCUCUGAGAGAUUAACA | 0.644 ± 0.051
12 | UAGUGACAGUGCUUCUUUGAGAGAUUAACA | 0.00128 ± 0.0056
13 | UAGUGACAGUCCUUCUCUGUCAGAUUAAGA | 0.000189 ± 0.035
14 | UUCACUGUCACCUUCUCUGACUCUAAUUGA [g11:g29:cont:t1A] | 0.00157 ± 0.0046
15 | UAGACUGUCACCUUCUCUGACAGAUUUACA | 0.00202 ± 0.0039
16 | UACACUGUCACCUUCUCUGAGUCAUUUUGA | 0.0033 ± 0.0044
17 | UAGUGACAGACCUUCUCUGAGAGAUAACA | 0.00229 ± 0.0056
18 | UAGUGACAGUGGUUGUCUGAGAGUUUAACA | 0.000589 ± 0.011
19 | UAGUGACAGUGGGUCUCUGAGAGAUUAACA | 0.000136 ± 0.027
20 | UAGUGACAGUGGAAGAGAGAGAGUUUAAGA | 0.000275 ± 0.018
21 | UAGACUGUCACCUUCUCUGAGAAGAUUAACA | 0.0399 ± 0.0084
22 | UAGUGACAGUGGAUCUCUGAGACUAUAACA | 0.000574 ± 0.024
23 | UAGUGACAGUCGUUCUCUGAGAGAUUAAGA | 0.000355 ± 0.024
24 | UAGUCUGUCACCUUCUCUGACUCAUAUUGA | 0.000868 ± 0.0073

Row | Sequence | pre-steady-state target cleavage rate
25 | UAGUGACAGACCUUCUCUGUGAGAUUUUGA | 0.000746 ± 0.011
26 | UAGUGACACACCUUCUGACUCUCUAAUUGA [g15:g22:cont:t1A] | 0.0016 ± 0.0054
27 | UAGUGACAGAGCUUCUCUGAGAGAUUAUGA | 0.000906 ± 0.01
28 | UAGUGUGUCACCUUCUCUGAGUGAUUAUCA | 0.00944 ± 0.0044
29 | UAGACUGUCACCUUCUCUGAGAGAUAAUGA | 0.00696 ± 0.0033
30 | UAGUGACAGUGGAAGACUGUCAGAUUAACA | 0.000549 ± 0.017
31 | UAGUGACUCACCAUCUCUGAGAGAUUUUGA | 0.00118 ± 0.0049
32 | UAGUGUGUCACCUUCUCUGUGAGAUAUUGA | 0.00237 ± 0.0049
33 | UAGUGACAGUGGAACUCUGAGUGAAUAACA | 0.000642 ± 0.016
34 | UAGUGACAGUCCUUCUCUGAGUGAUUAUCA | 0.00079 ± 0.0049
35 | AUCACUGUCACCAUUCUCUGAGAGAUUAACA | 0.741 ± 0.036
36 | UAGUGACACACCUUCUCUGAGACUUAUUGA | 0.000315 ± 0.027
37 | UACACUGUCACCUUCUCUGAGACUUUAUGA | 0.00869 ± 0.0047
38 | UAGUGACAGUGGAAGAGAGAGAGUUUAACA | 0.000208 ± 0.026
39 | UUCACUCUCACCAUCUCUGAGAGAUUAACA | 0.465 ± 0.024
40 | UAGUGACAGUGGAACUCUGAGACAUUUACA | 0.000923 ± 0.018
41 | UACAGUGUCACCAUCUCUGAGAGAUUAACA | 0.592 ± 0.036
42 | UAGUGACUCACCUUGUCUGUGAGAUUAACA | 0.0416 ± 0.0061
43 | AUCACUGCCACCUUCUCUGAGAGAUUAACA | 0.773 ± 0.044
44 | UAGUGACUCACCUUCUCUGAGACUUAUUGA | 0.000109 ± 0.047
45 | UAGUGACACACCUUCUCUGAGUGAUUAUGA | 0.0006 ± 0.012
46 | UUCACUGUCACCUUCUGACUCUCUAAUUGA [g15:g29:cont:t1A] | 0.000695 ± 0.0083
47 | UAGUGACUCACCUUCUCUCAGAGAAUAACA | 0.00327 ± 0.0036
48 | UAGUGACAGUGGAACUCUGAGUAGAUUAACA | 0.000721 ± 0.02

Single entries from the list:
UUCACUGUCACCUUCUGACUCUCUAAUUGA [g15:g29:cont:t1A] | pre-steady-state target cleavage rate: 0.000695 ± 0.0083
UAGUGACAGACCUUCUCUGUGAGAUUUUGA | pre-steady-state target cleavage rate: 0.000746 ± 0.011

Later entries:

Row | Sequence | pre-steady-state target cleavage rate
49 | UAGUGACUCAGCUUCUCUGAGAGAUAUUGA | 0.000758 ± 0.0065
50 | UACACUGUCAGGAUCUCUGAGAGAUUAUGA | 0.00116 ± 0.0057
51 | UUCACUGUCACCUUCUCUCUGAGAUAUUGA | 0.00389 ± 0.0041
52 | UAGUCUGUCACCUUCUCUGACAGAUUUACA | 0.0113 ± 0.0036
53 | UUCACUGUCACCGUCUCUGAGAGAUUAACA | 0.509 ± 0.022
54 | UAGUGACAGUGCUUCUCUGUGAGAUUUACA | 0.00148 ± 0.0065
55 | UAGUGACAGUGCUUCUCUGAGUCAUUAAGA | 0.000129 ± 0.025
56 | UAGUGAGUCACCUUCUCUGAGUCAUUUUGA | 0.00402 ± 0.0043
57 | UAGUGACAGACCUUCUCUGAGAGAUAAUGA | 0.00258 ± 0.0046
58 | UAGUGUGUCUGGUUCUCUGAGAGAUUAUGA | 0.000135 ± 0.025
59 | AUCUCUGUCACCUUGUCUGAGAGAUUAACA | 0.394 ± 0.06
60 | UAGACUGUCACCUUCUCUGAGACAUUAUCA | 0.00216 ± 0.0034
61 | UAGACUGUCACCUUCUCUCUGAGAUUAACA | 0.0118 ± 0.0026
62 | UAGUGACUCACCUUCUCUCAGUGAUUAACA | 0.00278 ± 0.0047
63 | UAGUGACUCACCUUCUACUGAGAGAUUAACA | 0.000245 ± 0.031
64 | UAGUGACACACCUUCUCUCACAGAUUAACA | 0.0023 ± 0.0064
65 | UACACUGUCACCUUCUCUGUCUGAUUAAGA | 0.0061 ± 0.0071
66 | UAGUGACAGUGGAACUCUGGAGAUUAACA | 0.00125 ± 0.0041
67 | UAGUGACACACCUUCUCUCGAGAGAUUAACA | 0.00161 ± 0.007
68 | UAGUGACAGUGCUUCUCUGAGCAGAUUAACA | 0.000908 ± 0.0048
69 | AUCAACUGUCACCUUCUCUGAGAGAUUAACA | 0.737 ± 0.049
70 | UAGACUGUCACCUUCUCUGUGACAUUAACA | 0.0186 ± 0.0033
71 | UAGUGACAGUGCUUAUCUGAGAGAUUAACA | 0.00129 ± 0.0063
